According to publication PMC5746060 (Cell Chemical Biology, 2017):

Test: general procedure: hybrid (solid and solution phase) peptide synthesis; 2-chlorotrityl resin
Details: whole synthesis

Substance: Ac-RVRHA-CONH-benzyl
- isolated yield: 4.2%
